Reference: patent EP1028734B1, “USE OF SPECIFIC STEADY-STATE R-TYPE CALCIUM CHANNEL BLOCKERS” (priority 1997, dated 1999)

Experiment: writhe responses in mice (acetic acid, acetylcholine, kaolin)
Type: in vivo
Excerpt: The antinociceptive actions of compound MV 8612 and MV 8608 were investigated in different models of nociception in mice as reported previously (Vaz et al., 1996, J. Pharmacol. Exp. Ther. 278:304-312).

CN1CC[C@]23c4c5ccc(O)c4O[C@H]2[C@@H](O)C=C[C@H]3[C@H]1C5 [MORPHINE, morphine]
acetic acid-induced writhes, intracerebroventricular dosing (i.c.v., MV 8612 4.2 to 42 nmol/site, morphine 0.26 to 13 nmol/site): dose-related antinociception | ID50 ACETIC ACID (i.p., mice, acetic acid-induced writhes): 1.3 (1.0-1.6) µmol/kg
